We go through one sequence from paper PMC8384837.

Positions count from the first letter of the chain named. Some of the results follow. At the low end of the ranking the order means little.

Settings in all cases: yeast three-hybrid, YBZ-1, SC-Leu-His + 0.5 mM 3-AT, 4 days
The target in experiment [1] is T1, PUM1 PUF domain R5-NGC C1007N + R1008G + Q1011C (UniProt Q14671).
T1 sequence: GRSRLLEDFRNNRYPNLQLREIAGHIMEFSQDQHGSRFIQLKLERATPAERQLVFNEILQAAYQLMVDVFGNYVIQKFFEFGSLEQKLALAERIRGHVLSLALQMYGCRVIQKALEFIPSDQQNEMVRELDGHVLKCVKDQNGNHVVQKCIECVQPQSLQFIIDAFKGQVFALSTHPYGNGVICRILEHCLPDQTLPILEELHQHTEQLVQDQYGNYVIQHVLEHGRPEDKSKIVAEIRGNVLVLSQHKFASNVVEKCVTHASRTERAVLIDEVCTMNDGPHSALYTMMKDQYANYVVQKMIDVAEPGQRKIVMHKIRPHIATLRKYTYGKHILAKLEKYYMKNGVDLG

The target of experiment [2] is T2, PUM1 PUF domain R5-NPR C1007N + R1008P + Q1011R (UniProt Q14671).
T2 sequence: T1 sequence with G181P, C184R

For experiment [3], the target named is T3, PUM1 PUF domain R5-NSV C1007N + R1008S + Q1011V (UniProt Q14671).
T3 sequence: T1 sequence with G181S, C184V

The target in experiment [4] is T4, PUM1 PUF domain R5-NVR C1007N + R1008V + Q1011R (UniProt Q14671).
T4 sequence: T1 sequence with G181V, C184R

The target in experiment [5] is T5, PUM1 PUF domain R5-QGC C1007Q + R1008G + Q1011C (UniProt Q14671).
T5 sequence: T1 sequence with N180Q

The target in experiment [6] is T6, PUM1 PUF domain R5-QIR C1007Q + R1008I + Q1011R (UniProt Q14671).
T6 sequence: T1 sequence with N180Q, G181I, C184R

Experiment [7] deals with T7, PUM1 PUF domain R5-QKA C1007Q + R1008K + Q1011A (UniProt Q14671).
T7 sequence: T1 sequence with N180Q, G181K, C184A

Experiment [8] concerns the target T8, PUM1 PUF domain R5-QKC C1007Q + R1008K + Q1011C (UniProt Q14671).
T8 sequence: T1 sequence with N180Q, G181K

Experiment [9] concerns the target T9, PUM1 PUF domain R5-QKN C1007Q + R1008K + Q1011N (UniProt Q14671).
T9 sequence: T1 sequence with N180Q, G181K, C184N

Experiment [10] has as its target T10, PUM1 PUF domain R5-QKR C1007Q + R1008K + Q1011R (UniProt Q14671).
T10 sequence: T1 sequence with N180Q, G181K, C184R

Experiment [11] addresses T11, PUM1 PUF domain R5-QLR C1007Q + R1008L + Q1011R (UniProt Q14671).
T11 sequence: T1 sequence with N180Q, G181L, C184R

Experiment [12] concerns the target T12, PUM1 PUF domain R5-QSC C1007Q + R1008S + Q1011C (UniProt Q14671).
T12 sequence: T1 sequence with N180Q, G181S

Experiment [13] concerns the target T13, PUM1 PUF domain R5-QVI C1007Q + R1008V + Q1011I (UniProt Q14671).
T13 sequence: T1 sequence with N180Q, G181V, C184I

In experiment [14] the target is T14, PUM1 PUF domain R5-QVR C1007Q + R1008V + Q1011R (UniProt Q14671).
T14 sequence: T1 sequence with N180Q, G181V, C184R

Experiment [15] has as its target T15, PUM1 PUF domain R5-RCD C1007R + R1008C + Q1011D (UniProt Q14671).
T15 sequence: T1 sequence with N180R, G181C, C184D

The target in experiment [16] is T16, PUM1 PUF domain R5-RMC C1007R + R1008M + Q1011C (UniProt Q14671).
T16 sequence: T1 sequence with N180R, G181M

Experiment [17] has as its target T17, PUM1 PUF domain R5-RNE C1007R + R1008N + Q1011E (UniProt Q14671).
T17 sequence: T1 sequence with N180R, G181N, C184E

Experiment [18] addresses T18, PUM1 PUF domain R5-RPC C1007R + R1008P + Q1011C (UniProt Q14671).
T18 sequence: T1 sequence with N180R, G181P

Experiment [19] deals with T19, PUM1 PUF domain R5-RPD C1007R + R1008P + Q1011D (UniProt Q14671).
T19 sequence: T1 sequence with N180R, G181P, C184D

Experiment [20] has as its target T20, PUM1 PUF domain R5-SED C1007S + R1008E + Q1011D (UniProt Q14671).
T20 sequence: T1 sequence with N180S, G181E, C184D

For “GGCUAGAACUAGUGGAUCCCCCGGCGCCCGGCGGCUCGAGCCCGGGUAAGUGUAAAUAGUCUGCAUGCCGCCGGGCGCCAUGCCUGCAGGUCGACUCUAGAAAACAUG”, the binding signal (log2 enrichment (interaction score)) in [1] is under -5.29; in experiment [2], under -5.87; in experiment [3], under -6.52; in experiment [4], under -6.54; in experiment [5] it was under -6.15; in [6], under -6.7. Further, the binding signal (log2 enrichment (interaction score)) was under -7.7 in experiment [7]; under -6.15 in experiment [8]; under -5.58 in experiment [9]; under -7.6 in experiment [10]; under -7.78 in experiment [11]; under -7.14 in experiment [12]. Besides, the binding signal (log2 enrichment (interaction score)) in experiment [13] was under -7.07; in experiment [14], under -8.46; in experiment [15], under -5.79; in experiment [16] it was under -5.55; in experiment [17], under -5.3; in experiment [18], under -7.79. The binding signal (log2 enrichment (interaction score)) is under -7.65 in experiment [19] and under -6.54 in experiment [20].
